Results reported in PubChem BioAssay (NCATS).
This is one part of the list. These are further read-outs of the screen, such as a control signal, another cell line or another target. No call is given for them. The list favours compounds with an active or inconclusive main result. Words in brackets tell the shape of the fitted curve; partial curves, single points and poor fits give uncertain potencies.

Experiment: qHTS for identification of novel therapeutic agents for treatment of microphthalmiaassociated transcription factor (MiT) renal cell carcinoma (RCC) (AID 1963991)
Conditions: CellTiter-Glo, 48 h; for z-score: stronger effect = lower value
Source text: PI: Marston Linehan Ph.D.
Urologic Oncology Branch, Center for Cancer Research (CCR)
National Cancer Institute (NCI), National Institute of Health (NIH), Bethesda, Maryland
MiT-Renal Cell Carcinoma (RCC) is characterized by genomic translocations involving microphthalmia-associated transcription factor (MiT) family members TFE3, TFEB, or MITF. MiT-RCC represents a specific subtype of sporadic RCC that is predominantly seen in young patients and can present with heterogeneous histological features making diagnosis challenging. Moreover, the disease biology of this aggressive cancer is poorly understood and there is no accepted standard of care therapy for patients with advanced disease. Tumor-derived cell lines have been established from human TFE3-RCC providing useful models for preclinical studies. TFE3-RCC tumor derived cell lines and their tissues of origin were characterized by IHC and gene expression analyses. An unbiased high-throughput drug screen was performed to identify novel therapeutic agents for treatment of MiT-RCC. Potential therapeutic candidates were validated in in vitro and in vivo preclinical studies. Mechanistic assays were conducted to confirm the on-target effects of drugs. The results of a high-throughput small molecule drug screen utilizing three TFE3-RCC tumor-derived cell lines identified five classes of agents with potential pharmacological efficacy, including inhibitors of phosphoinositide-3-kinase (PI3K) and mechanistic target of rapamycin (mTOR), and several additional agents, including the transcription inhibitor Mithramycin A. Upregulation of the cell surface marker GPNMB, a specific MiT transcriptional target, was confirmed in TFE3-RCC and evaluated as a therapeutic target using the GPNMB-targeted antibody-drug conjugate CDX-011. […] The results of the high-throughput drug screen and validation studies in TFE3-RCC tumor-derived cell lines have provided in vitro and in vivo preclinical data supporting the efficacy of the PI3K/mTOR inhibitor.
SEQUENCE No. (e.g., 1, 2, 3, etc.); […] (e.g., Cells, Incubation, Reagent, etc.); VALUE; DESCRIPTION.
1; Cells; 3 uL; white, solid-bottom Grenier assay plate.
2; Compounds; 23 nL; Kalypsis pin-tool (Wako USA).
3; Incubation; 48 hr; 37 C, 5% CO2, 95% humidity.
4; Reagent; 3 uL; CellTiter-Glo reagent (Promega).
5; Incubation; 15 min; room temperature.
6; Detection; Luminescence; ViewLux plate reader (PerkinElmer).
NOTES (numbers refer to Sequence numbers above)
1. Quantitative high-throughput screening (qHTS) of 1912 pharmacologically defined small molecule compounds was conducted on three TFE3-fusion cell lines bearing three different fusion partners (UOK109, UOK124, UOK145). Briefly, 500 cells in complete growth media were plated into white, solid-bottom, 1536-well tissue culture treated plates (Grenier Cat. 789173-F) using a Multidrop Combi cassette dispenser.
2. Twenty-three nanoliter of 1912 pharmacologically defined small molecule compounds of the NCATS Mechanism Interrogation PlatE (MIPE) version 4.0 were added to each assay plate using a Pintool Dispenser (Wako) equipped with 1536 pin head.
3. Plates were covered with stainless steel gasketed lids and incubated for 48 hours at standard cell culture conditions.
4. Viability was assessed by adding 3uL of CellTiter-Glo detection reagent (Promega).
5. Plates were covered with gasket lids and incubated for 15 minutes at room temperature.
6. Luminescence was measured on a ViewLux plate reader (PerkinElmer). Post-screen data processing used DMSO controls as 100% viability and empty wells as 0% viability and dose response curve fitting was done for all 11 concentrations for each compound.

[1] = TFE3-RCC UOK109 viability, measured here: UOK109 Z-AUC
[2] = TFE3-RCC viability, measured here: UOK124 Z-AUC
[3] = TFE3-RCC viability, measured here: UOK124 cell viability
[4] = TFE3-RCC viability, measured here: UOK145 Z-AUC
[5] = TFE3-RCC viability, measured here: UOK145 cell viability

## CN(C)CCOc1cc(-c2cn[nH]c2)ccc1NC(=O)C1COc2ccccc2O1 (configuration not stated)
[1]
  z-score: 0.61
[2]
  z-score: 0.0908
[3]
  AC50: 18.7 µM [falling, partial curve]
[4]
  z-score: 0.824
[5]
  AC50: 33.2 µM [falling, single point]

## CCCCc1ccc(NS(=O)(=O)c2ccc(C)c(C(=O)N3CCN(c4cccc(C)c4C)CC3)c2)cc1
[1]
  z-score: 0.291
[2]
  z-score: 0.694
[3]
  AC50: 14.8 µM [falling, partial curve]
[4]
  z-score: 0.417
[5]
  AC50: 20.9 µM [falling, single point]

## Cc1ccc(/C=N/NC(=O)c2ccccc2Oc2ccccc2)o1
[1]
  z-score: 0.427
[2]
  z-score: 0.604
[3]
  AC50: 29.6 µM [falling, single point]
[4]
  z-score: 0.235

## COc1ccc2cc(-c3nc(-c4ccc(S(C)=O)cc4)[nH]c3-c3ccncc3)ccc2c1 (configuration not stated)
[1]
  z-score: 0.538
[2]
  z-score: 0.265
[3]
  AC50: 37.2 µM [falling, single point]
[4]
  z-score: 0.606
[5]
  AC50: 37.2 µM [falling, single point]

## CN1CCN(c2c(F)cc3c(=O)c(C(=O)O)cn4c3c2OCN4C)CC1
[1]
  z-score: -0.574
[2]
  z-score: 0.652
[3]
  AC50: 0.00105 µM [falling, full curve, poor fit]
[4]
  z-score: -1.2

## COc1ccc(S(=O)(=O)Nc2cc(-c3c(O)ccc4ccccc34)c(O)c3ccccc23)cc1
[1]
  z-score: 0.234
[2]
  z-score: -1.89
[3]
  AC50: 20.9 µM [falling, partial curve]
[4]
  z-score: 0.313
[5]
  AC50: 26.4 µM [falling, single point]

## O=C(Nc1cc2cc[nH]c2cn1)c1ccccc1
[1]
  z-score: -0.197
[2]
  z-score: -0.235
[3]
  AC50: 16.6 µM [falling, partial curve]
[4]
  z-score: 0.367
[5]
  AC50: 16.6 µM [falling, partial curve]

## O=C(c1ccccc1)c1ccc2n1CCC2C(=O)O (configuration not stated)
[1]
  z-score: 0.294
[2]
  z-score: 0.758
[4]
  z-score: 0.0131
[5]
  AC50: 20.9 µM [falling, partial curve]

## Cc1cccc(-c2nn(C(=S)Nc3ccccc3)cc2-c2ccnc3ccccc23)n1
[1]
  z-score: 0.504
[2]
  z-score: -0.622
[3]
  AC50: 0.0372 µM [falling, full curve, poor fit]
[4]
  z-score: 0.562
[5]
  AC50: 9.35 µM [falling, partial curve, poor fit]
